Results published in PubChem BioAssay AID342 (DTP/NCI, 2004).
The list shows only some results of the screen, not a fair sample: it covers a few groups of compounds. Not every dose and run of a compound is shown. T/C: endpoint of the treated group in % of that of the vehicle group. Schedules are NCI's codes, taken here to give the interval after Q, in days (D) or hours (H), and the number of doses after X. Some schedules carry Z or #; the key to these is not given. Some T/C values are followed by the survivors on the day toxicity was checked; without a count or a note in brackets, all were alive then. Some entries give survivors of the animals treated and no T/C: the source holds a T/C of zero for them, seemingly a mark for toxic or unscored doses. Counts of survivors are from the toxicity check, whose day is not always given; animals may have died later.

Tested on: Swiss mice, Sarcoma 180 sc, mean tumor weight T/C
Assay: NCI In Vivo Anticancer Drug Screen. Data for tumor model Sarcoma 180 (subcutaneous) in Swiss mice
Settings: T/C endpoint: mean tumor weight, higher T/C = larger tumour; for T/C: evaluated on day 8
Protocol: The antitumor activity of compounds was measured in mice bearing transplantable tumors. Survival or tumor size were measured and the results are expressed as the measurement made in the treated group (T) divided by the measurement made in the vehicle treated control group (C). The tumor model used in this assay is Sarcoma 180 (subcutaneous) in Swiss mice

SMILES: O=c1[nH]c(=O)c2[nH]c(/N=N\N(CCCl)CCCl)nc2[nH]1
- T/C (dose: 9.37 mg/kg/injection, schedule: Q#A X014 (ip), vehicle: saline): 67 % of control
- T/C (dose: 18.75 mg/kg/injection, schedule: Q#A X014 (ip), vehicle: saline): 72 % of control
- T/C (dose: 37.5 mg/kg/injection, schedule: Q#A X014 (ip), vehicle: saline): 93 % of control
- T/C (dose: 75.0 mg/kg/injection, schedule: Q#A X014 (ip), vehicle: saline): 99 % of control

SMILES: CC(C)/C(=N\P(=O)(c1ccccc1)c1ccccc1)N(C)C
- T/C (dose: 31.0 mg/kg/injection, schedule: Q01DX007 (ip), vehicle: carboxymethylcellulose (CMC)): 83 % of control [6 of 7 alive]
- T/C (dose: 62.5 mg/kg/injection, schedule: Q01DX007 (ip), vehicle: carboxymethylcellulose (CMC)): 91 % of control [5 of 7 alive]
- survivor count (dose: 125.0 mg/kg/injection, schedule: Q01DX007 (ip), vehicle: carboxymethylcellulose (CMC)): 4 of 7
- survivor count (dose: 250.0 mg/kg/injection, schedule: Q01DX007 (ip), vehicle: carboxymethylcellulose (CMC)): 0 of 6
- survivor count (dose: 500.0 mg/kg/injection, schedule: Q01DX007 (ip), vehicle: carboxymethylcellulose (CMC)): 0 of 7

SMILES: O=[N+]([O-])c1ccc(Oc2ccccc2[N+](=O)[O-])c([N+](=O)[O-])c1
- T/C (dose: 74.0 mg/kg/injection, schedule: Q#A X014 (ip), vehicle: methylcellulose (MC)): 97 % of control
- T/C (dose: 111.0 mg/kg/injection, schedule: Q#A X014 (ip), vehicle: methylcellulose (MC)): 68 % of control [5 of 6 alive]
- T/C (dose: 166.5 mg/kg/injection, schedule: Q#A X014 (ip), vehicle: methylcellulose (MC)): 77 % of control
- T/C (dose: 166.5 mg/kg/injection, schedule: Q#A X014 (ip), vehicle: saline): 54 % of control
- T/C (dose: 250.0 mg/kg/injection, schedule: Q#A X014 (ip), vehicle: methylcellulose (MC)): 38 % of control
- T/C (dose: 250.0 mg/kg/injection, schedule: Q#A X014 (ip), vehicle: saline): 47 % of control [5 of 6 alive]
- T/C (dose: 375.0 mg/kg/injection, schedule: Q#A X014 (ip), vehicle: saline): 49 % of control
- T/C (dose: 562.5 mg/kg/injection, schedule: Q#A X014 (ip), vehicle: saline): 31 % of control [5 of 6 alive]

SMILES: O=C(O)/C=C\c1ccccc1N(CCCl)CCCl
- T/C (dose: 4.5 mg/kg/injection, schedule: Q#A X014 (ip), vehicle: methylcellulose (MC)): 88 % of control [5 of 6 alive]
- T/C (dose: 6.5 mg/kg/injection, schedule: Q#A X014 (ip), vehicle: methylcellulose (MC)): 66 % of control
- T/C (dose: 6.6 mg/kg/injection, schedule: Q01DX007 (ip), vehicle: other): 72 % of control
- survivor count (dose: 7.4 mg/kg/injection, schedule: Q#A X014 (ip), vehicle: other): 3 of 6
- T/C (dose: 9.9 mg/kg/injection, schedule: Q01DX007 (ip), vehicle: other): 56 % of control [5 of 6 alive]
- T/C (dose: 10.0 mg/kg/injection, schedule: Q#A X014 (ip), vehicle: methylcellulose (MC)): 40 % of control
- T/C (dose: 11.0 mg/kg/injection, schedule: Q#A X014 (ip), vehicle: methylcellulose (MC)): 77 % of control
- T/C (dose: 11.0 mg/kg/injection, schedule: Q#A X014 (ip), vehicle: saline): 24 % of control
- survivor count (dose: 11.1 mg/kg/injection, schedule: Q#A X014 (ip), vehicle: other): 1 of 6
- T/C (dose: 14.8 mg/kg/injection, schedule: Q01DX007 (ip), vehicle: other): 32 % of control [5 of 6 alive]
- T/C (dose: 15.0 mg/kg/injection, schedule: Q#A X014 (ip), vehicle: methylcellulose (MC)): 27 % of control
- T/C (dose: 16.5 mg/kg/injection, schedule: Q#A X014 (ip), vehicle: methylcellulose (MC)): 93 % of control [5 of 6 alive]
- T/C (dose: 16.5 mg/kg/injection, schedule: Q#A X014 (ip), vehicle: saline): 21 % of control
- T/C (dose: 25.0 mg/kg/injection, schedule: Q#A X014 (ip), vehicle: methylcellulose (MC)): 54 % of control
- T/C (dose: 25.0 mg/kg/injection, schedule: Q#A X014 (ip), vehicle: saline): 22 % of control [4 of 6 alive]
- survivor count (dose: 37.5 mg/kg/injection, schedule: Q#A X014 (ip), vehicle: methylcellulose (MC)): 2 of 6

SMILES: O[C@H](CNCCCl)[C@@H](O)CNCCCl
- T/C (dose: 3.8 mg/kg/injection, schedule: Q#A X014 (ip), vehicle: methylcellulose (MC)): 77 % of control
- T/C (dose: 5.65 mg/kg/injection, schedule: Q#A X014 (ip), vehicle: methylcellulose (MC)): 48 % of control [5 of 6 alive]
- T/C (dose: 8.5 mg/kg/injection, schedule: Q#A X014 (ip), vehicle: methylcellulose (MC)): 40 % of control
- survivor count (dose: 12.5 mg/kg/injection, schedule: Q#A X014 (ip), vehicle: methylcellulose (MC)): 1 of 6
